{"sequences": {"note": "The chains behind the UniProt entries cited, without tags or fusion partners. Where a name states a change or a piece, a line headed by the entry shows the natural chain unless it says otherwise.", "UniProt O00151": "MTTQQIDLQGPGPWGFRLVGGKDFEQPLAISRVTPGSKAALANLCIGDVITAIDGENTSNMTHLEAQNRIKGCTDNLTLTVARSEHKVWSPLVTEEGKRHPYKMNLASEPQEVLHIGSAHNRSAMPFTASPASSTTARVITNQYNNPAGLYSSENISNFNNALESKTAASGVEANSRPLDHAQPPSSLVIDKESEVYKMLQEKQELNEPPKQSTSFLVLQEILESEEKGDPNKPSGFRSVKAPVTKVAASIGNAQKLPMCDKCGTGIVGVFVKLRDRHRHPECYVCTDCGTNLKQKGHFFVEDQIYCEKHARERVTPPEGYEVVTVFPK", "UniProt P12004, whole entry, looked up": "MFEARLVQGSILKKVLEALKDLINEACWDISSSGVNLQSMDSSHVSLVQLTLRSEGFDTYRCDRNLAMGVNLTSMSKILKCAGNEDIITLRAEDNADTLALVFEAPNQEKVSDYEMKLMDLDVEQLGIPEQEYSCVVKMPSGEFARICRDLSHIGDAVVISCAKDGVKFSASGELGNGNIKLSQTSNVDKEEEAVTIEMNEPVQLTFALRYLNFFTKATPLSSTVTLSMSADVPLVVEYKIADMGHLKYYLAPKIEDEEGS", "UniProt O95613": "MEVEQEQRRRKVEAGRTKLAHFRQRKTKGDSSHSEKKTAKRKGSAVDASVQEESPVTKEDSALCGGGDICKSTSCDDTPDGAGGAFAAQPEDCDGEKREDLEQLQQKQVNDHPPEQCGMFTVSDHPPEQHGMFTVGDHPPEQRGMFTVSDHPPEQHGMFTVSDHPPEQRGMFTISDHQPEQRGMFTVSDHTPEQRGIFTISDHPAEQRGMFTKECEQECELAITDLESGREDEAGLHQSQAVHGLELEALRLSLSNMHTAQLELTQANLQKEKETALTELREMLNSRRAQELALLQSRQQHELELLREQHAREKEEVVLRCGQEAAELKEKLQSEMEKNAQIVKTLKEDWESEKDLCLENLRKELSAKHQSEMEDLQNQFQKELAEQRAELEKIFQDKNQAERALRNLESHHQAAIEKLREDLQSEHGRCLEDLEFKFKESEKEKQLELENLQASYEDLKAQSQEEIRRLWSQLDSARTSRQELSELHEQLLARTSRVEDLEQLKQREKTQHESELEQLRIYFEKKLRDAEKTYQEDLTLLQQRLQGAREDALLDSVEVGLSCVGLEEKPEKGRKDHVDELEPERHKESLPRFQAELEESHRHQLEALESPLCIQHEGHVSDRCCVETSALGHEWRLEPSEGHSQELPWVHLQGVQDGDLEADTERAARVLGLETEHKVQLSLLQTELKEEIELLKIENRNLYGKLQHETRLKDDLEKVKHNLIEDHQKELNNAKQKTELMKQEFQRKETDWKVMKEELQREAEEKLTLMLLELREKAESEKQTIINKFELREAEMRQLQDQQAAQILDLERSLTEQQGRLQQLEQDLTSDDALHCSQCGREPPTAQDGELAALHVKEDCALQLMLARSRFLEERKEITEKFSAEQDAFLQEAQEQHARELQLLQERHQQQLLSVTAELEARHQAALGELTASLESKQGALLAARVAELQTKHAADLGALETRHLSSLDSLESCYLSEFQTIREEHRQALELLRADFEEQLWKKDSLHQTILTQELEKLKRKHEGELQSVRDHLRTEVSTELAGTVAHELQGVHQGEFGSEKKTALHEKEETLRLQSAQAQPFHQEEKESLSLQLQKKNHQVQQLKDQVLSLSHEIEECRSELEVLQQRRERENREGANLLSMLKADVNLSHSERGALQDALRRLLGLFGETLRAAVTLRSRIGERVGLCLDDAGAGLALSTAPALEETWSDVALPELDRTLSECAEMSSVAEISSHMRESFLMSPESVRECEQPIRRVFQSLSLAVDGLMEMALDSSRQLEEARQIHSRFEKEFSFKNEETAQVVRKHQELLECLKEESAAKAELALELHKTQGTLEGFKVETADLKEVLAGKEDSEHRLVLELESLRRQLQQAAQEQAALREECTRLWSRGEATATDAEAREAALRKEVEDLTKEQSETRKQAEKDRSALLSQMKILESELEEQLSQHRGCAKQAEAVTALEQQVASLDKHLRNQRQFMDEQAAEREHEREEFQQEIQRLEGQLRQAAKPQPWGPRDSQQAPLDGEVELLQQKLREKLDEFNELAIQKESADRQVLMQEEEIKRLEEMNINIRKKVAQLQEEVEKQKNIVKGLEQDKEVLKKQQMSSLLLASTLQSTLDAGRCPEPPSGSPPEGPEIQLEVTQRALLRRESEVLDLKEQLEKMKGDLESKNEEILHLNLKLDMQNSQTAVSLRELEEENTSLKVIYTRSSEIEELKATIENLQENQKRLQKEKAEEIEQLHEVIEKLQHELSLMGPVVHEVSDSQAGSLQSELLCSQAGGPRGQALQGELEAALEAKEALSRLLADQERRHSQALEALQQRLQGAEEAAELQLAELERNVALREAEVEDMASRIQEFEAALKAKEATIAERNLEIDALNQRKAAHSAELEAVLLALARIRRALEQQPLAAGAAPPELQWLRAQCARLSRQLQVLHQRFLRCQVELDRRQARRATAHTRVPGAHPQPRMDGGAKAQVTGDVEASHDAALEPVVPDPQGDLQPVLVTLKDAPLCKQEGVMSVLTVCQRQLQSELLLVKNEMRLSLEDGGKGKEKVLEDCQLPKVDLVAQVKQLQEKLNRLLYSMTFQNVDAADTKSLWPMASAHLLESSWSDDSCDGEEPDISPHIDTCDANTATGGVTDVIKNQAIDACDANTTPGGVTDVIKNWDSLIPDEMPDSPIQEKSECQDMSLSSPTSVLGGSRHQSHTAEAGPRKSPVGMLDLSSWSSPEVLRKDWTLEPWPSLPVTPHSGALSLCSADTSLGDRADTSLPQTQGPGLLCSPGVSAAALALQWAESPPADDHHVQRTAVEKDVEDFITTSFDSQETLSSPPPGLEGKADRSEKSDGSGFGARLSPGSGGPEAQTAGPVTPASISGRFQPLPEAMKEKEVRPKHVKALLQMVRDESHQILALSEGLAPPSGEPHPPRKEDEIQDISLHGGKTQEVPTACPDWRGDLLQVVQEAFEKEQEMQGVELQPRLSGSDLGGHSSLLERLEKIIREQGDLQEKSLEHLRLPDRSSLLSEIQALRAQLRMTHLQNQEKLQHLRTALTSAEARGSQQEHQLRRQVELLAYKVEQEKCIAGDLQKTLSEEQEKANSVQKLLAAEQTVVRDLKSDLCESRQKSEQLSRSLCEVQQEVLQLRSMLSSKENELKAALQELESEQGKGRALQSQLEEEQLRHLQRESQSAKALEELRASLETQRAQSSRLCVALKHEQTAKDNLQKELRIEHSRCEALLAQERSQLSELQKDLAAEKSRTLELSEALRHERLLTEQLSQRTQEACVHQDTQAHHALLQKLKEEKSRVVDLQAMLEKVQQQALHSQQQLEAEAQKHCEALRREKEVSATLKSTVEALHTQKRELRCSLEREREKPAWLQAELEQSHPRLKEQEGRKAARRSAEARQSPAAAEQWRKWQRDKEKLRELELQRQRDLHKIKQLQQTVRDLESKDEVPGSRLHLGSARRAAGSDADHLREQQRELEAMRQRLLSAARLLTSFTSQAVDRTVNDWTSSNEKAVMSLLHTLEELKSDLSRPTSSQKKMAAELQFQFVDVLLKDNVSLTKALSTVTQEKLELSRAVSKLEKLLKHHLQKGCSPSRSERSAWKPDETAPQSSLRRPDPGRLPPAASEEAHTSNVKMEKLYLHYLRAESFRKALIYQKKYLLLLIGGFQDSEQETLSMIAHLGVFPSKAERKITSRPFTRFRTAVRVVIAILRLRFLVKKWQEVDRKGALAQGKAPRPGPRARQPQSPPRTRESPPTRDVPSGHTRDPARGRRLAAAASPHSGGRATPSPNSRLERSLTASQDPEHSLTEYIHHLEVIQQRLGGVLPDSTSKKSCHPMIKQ", "UniProt Q96HC4": "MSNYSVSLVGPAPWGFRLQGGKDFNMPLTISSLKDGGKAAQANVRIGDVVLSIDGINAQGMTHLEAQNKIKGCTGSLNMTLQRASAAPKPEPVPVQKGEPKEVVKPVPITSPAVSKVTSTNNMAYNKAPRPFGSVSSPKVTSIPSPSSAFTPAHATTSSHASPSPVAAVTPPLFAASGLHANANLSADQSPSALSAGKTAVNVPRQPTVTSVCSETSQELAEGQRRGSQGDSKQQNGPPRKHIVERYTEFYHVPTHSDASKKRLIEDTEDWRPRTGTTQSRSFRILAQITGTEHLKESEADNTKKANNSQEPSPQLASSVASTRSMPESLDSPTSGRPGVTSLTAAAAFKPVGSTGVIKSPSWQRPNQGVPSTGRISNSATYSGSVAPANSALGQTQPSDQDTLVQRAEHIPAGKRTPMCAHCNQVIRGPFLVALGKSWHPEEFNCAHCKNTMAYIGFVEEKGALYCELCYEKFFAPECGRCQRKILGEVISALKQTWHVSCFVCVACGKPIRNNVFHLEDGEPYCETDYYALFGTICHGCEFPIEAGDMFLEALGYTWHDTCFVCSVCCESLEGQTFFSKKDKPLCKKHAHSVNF", "UniProt Q14690": "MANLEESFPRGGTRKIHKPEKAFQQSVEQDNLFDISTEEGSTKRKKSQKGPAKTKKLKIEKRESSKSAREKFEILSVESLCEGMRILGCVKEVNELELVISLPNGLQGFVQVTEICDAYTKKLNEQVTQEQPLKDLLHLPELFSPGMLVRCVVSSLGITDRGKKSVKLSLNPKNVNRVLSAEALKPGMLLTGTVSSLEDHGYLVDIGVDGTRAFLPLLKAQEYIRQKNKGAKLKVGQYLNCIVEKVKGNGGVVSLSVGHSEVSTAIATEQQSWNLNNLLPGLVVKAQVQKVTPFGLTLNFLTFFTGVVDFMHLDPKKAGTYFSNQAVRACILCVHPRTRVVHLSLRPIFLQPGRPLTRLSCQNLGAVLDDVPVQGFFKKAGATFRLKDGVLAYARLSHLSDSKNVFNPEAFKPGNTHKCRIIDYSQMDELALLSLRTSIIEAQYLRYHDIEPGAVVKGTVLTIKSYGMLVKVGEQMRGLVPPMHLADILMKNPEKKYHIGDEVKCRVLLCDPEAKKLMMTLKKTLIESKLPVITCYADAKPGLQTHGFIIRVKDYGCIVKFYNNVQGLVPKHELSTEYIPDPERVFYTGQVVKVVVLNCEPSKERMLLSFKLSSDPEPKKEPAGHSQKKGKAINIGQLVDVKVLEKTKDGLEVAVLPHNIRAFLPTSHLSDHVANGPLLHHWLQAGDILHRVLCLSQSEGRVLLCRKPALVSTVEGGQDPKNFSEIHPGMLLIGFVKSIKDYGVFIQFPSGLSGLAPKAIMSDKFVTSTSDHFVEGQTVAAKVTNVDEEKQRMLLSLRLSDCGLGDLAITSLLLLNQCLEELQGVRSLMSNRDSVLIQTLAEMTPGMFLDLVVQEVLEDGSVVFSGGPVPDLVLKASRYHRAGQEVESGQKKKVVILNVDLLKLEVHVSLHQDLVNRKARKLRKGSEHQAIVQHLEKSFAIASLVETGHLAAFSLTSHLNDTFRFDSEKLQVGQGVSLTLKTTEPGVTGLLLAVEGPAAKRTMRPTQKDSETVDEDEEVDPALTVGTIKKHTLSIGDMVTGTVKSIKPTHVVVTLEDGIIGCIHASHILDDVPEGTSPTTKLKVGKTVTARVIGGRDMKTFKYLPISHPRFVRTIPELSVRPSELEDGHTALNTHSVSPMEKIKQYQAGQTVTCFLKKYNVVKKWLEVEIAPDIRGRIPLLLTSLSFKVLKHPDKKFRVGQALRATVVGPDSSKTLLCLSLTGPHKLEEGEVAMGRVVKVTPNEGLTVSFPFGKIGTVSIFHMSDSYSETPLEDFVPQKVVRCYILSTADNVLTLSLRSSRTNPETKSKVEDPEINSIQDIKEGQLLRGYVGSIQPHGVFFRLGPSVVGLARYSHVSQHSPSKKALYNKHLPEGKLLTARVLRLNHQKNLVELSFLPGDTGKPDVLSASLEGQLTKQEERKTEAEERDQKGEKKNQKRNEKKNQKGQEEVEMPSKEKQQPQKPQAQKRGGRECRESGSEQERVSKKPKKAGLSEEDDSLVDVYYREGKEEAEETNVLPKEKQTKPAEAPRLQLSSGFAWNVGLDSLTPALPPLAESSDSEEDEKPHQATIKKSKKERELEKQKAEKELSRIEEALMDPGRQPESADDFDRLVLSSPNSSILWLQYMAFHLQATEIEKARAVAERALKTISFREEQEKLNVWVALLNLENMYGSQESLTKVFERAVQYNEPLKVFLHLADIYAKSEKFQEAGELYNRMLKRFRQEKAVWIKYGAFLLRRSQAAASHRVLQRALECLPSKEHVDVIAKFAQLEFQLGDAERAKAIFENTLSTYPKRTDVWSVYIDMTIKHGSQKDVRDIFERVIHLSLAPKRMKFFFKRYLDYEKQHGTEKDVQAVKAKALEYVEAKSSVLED"}, "source": "the supplement of paper PMC12067093", "about": "“Discovery and optimisation of a covalent ligand for TRIM25 and its application to targeted protein ubiquitination” (Chemical Science, 2025)", "note": "Some of the results follow.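 Further: competitive chemoproteomic profiling in live THP-1 cells with an iodoacetamide desthiobiotin (IA-DTB) probe, comparing probe-labelled peptide intensities in compound-treated cells against DMSO-treated controls.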", "data": [{"compound": "CC1Cc2ccccc2N1C(=O)C1CCCN(C1)C(=O)CCl (mixture of isomers) [TRIM25 ligand 11 (diastereomer mixture)]", "test": "probe-labelled cysteine peptide fold change vs DMSO (competition) (log2 fold change); higher = less target engagement (more negative = stronger competition)", "details": "50 µM; THP-1; incubation time: 4 h", "values": [{"target": "PDHX_O00330_307_STVPHAYATADCDLGAVLK (UniProt O00330)", "probe-labelled cysteine peptide fold change": -0.262}, {"target": "PDLIM1_O00151_283+289_HRHPECYVCTDCGTNLK (UniProt O00151)", "probe-labelled cysteine peptide fold change": 0.005}, {"target": "PARP4_Q9UKK3_1099_LLVYGFIPHCTQATLCALIQEK (UniProt Q9UKK3)", "probe-labelled cysteine peptide fold change": -0.243}, {"target": "PCCA_P05165_155_CLAAEDVVFIGPDTHAIQAMGDKIESK (UniProt P05165)", "probe-labelled cysteine peptide fold change": 0.00753}, {"target": "PDHA1_P08559_261_VDGMDILCVR (UniProt P08559)", "probe-labelled cysteine peptide fold change": 0.47}, {"target": "PDCD2L_Q9BRP1_191_LQDAVLGAAHPVPPGLPLFLPYYICVADEDDYRDFVNLDHAHSLLR (UniProt Q9BRP1)", "probe-labelled cysteine peptide fold change": 0.29}, {"target": "PCNA_P12004_162_DLSHIGDAVVISCAK (UniProt P12004)", "probe-labelled cysteine peptide fold change": 0.0679}, {"target": "PDS5A_Q29RF7_327_DSDLATQNRPLWQCFLGR (UniProt Q29RF7)", "probe-labelled cysteine peptide fold change": 0.153}, {"target": "PDLIM7_Q9NR12_367+370_MTWHVHCFTCAACK (UniProt Q9NR12)", "probe-labelled cysteine peptide fold change": 0.172}, {"target": "PBK_Q96KB5_70_INPICNDHYR (UniProt Q96KB5)", "probe-labelled cysteine peptide fold change": 0.0264}, {"target": "PATZ1_Q9HBE1_610_KYPCPECGSFFR (UniProt Q9HBE1)", "probe-labelled cysteine peptide fold change": 0.0311}, {"target": "PDCD6IP_Q8WUM4_512_ECYQSHR (UniProt Q8WUM4)", "probe-labelled cysteine peptide fold change": -0.0569}, {"target": "PCNT_O95613_430_CLEDLEFK (UniProt O95613)", "probe-labelled cysteine peptide fold change": 0.0936}, {"target": "PDLIM5_Q96HC4_213_QPTVTSVCSETSQELAEGQRR (UniProt Q96HC4)", "probe-labelled cysteine peptide fold change": -0.383}, {"target": "PDCD11_Q14690_535_LPVITCYADAKPGLQTHGFIIR (UniProt Q14690)", "probe-labelled cysteine peptide fold change": 0.136}]}]}
